Some of the results follow.
The compounds below were run on T1, CTL2-GFP (C. trachomatis L2/434/Bu, GFP-expressing). Conditions: bulk GFP, single well; 28.5 h, 10 µM; inhibitor.
T1 construct: L2/434/Bu, GFP-expressing
Design: species or system HeLa; Intracellular C. trachomatis growth in HeLa cells, bulk GFP fluorescence relative to DMSO
For `COC(C(=O)NCc1sc(-c2ccccc2)nc1C)c1ccccc1` (centres unmarked) [CBK092362], the “% of control remaining” value was 115.91%. `Cc1c(C(=O)N2CCC(c3c(C(=O)NC(C)C)sc4ccccc34)C2)[nH]c2ccccc12` (centres unmarked) [CBK285872] was tested, and the “% of control remaining” value was 120.02%. `NC(=O)c1c(NC(=O)CSC2=NCCS2)sc2c1CCCC2` [CBK269989] was tested, and the “% of control remaining” value was 107.334%. In the case of `CN(C)c1ccc(-c2nccnc2NS(=O)(=O)c2cccs2)cc1` [CBK050804], the “% of control remaining” value is reported as 130.26%. `c1cncc(-c2cn3ccnc3c(NCC3CC3)n2)c1` [CBK036609] was tested, and the “% of control remaining” value was 118.118%. `COc1cc2c(cc1OC)CN(CCO)CC2` [CBK138322] was tested, and the “% of control remaining” value was 103.649%. `COCC(=O)Nc1ccc(Cl)c(NC(=O)NCCN2CCCC2=O)c1` [CBK306663] was tested, and the “% of control remaining” value was 102.374%. In the case of `O=C(CSc1nc2ccccc2s1)OCc1ccc([N+](=O)[O-])cc1` [CBK262547], the “% of control remaining” value is reported as 122.394%. For `c1ccc(CCNc2nccnc2-c2ccncc2)nc1` [CBK037378], the “% of control remaining” value was 118.2%. For `COc1ccc(OC)c(NC(=O)c2cnc3scc(C)n3c2=O)c1` [CBK287462], the “% of control remaining” value was 129.237%. With `COc1cc(NS(=O)(=O)c2ccc(N/C=C3/CCc4ccccc4C3=O)cc2)nc(OC)n1` [CBK263376] the “% of control remaining” value was 15.4642%. `Cc1cc(C2CCCCCN2Cc2c(C)nn(C)c2C)on1` (centres unmarked) [CBK282967] was tested, and the “% of control remaining” value was 112.979%. For `CCCc1cc(O)nc(SCC(=O)Nc2cc3c(cc2C(C)=O)OCO3)n1` [CBK266144], the “% of control remaining” value was 120.521%. `NS(=O)(=O)c1ccc(CCNC(=O)c2ccc(Cl)c([N+](=O)[O-])c2)cc1` [CBK264395] was tested, and the “% of control remaining” value was 100%. For `O=C(Nc1ccccc1C(=O)NCCN1CCOCC1)c1cccs1` [CBK270077], the “% of control remaining” value was 115.597%. With `COc1ccc(C2=NN(c3ccc([N+](=O)[O-])cc3)C(=O)/C2=C\c2cccc(OC)c2OC)cc1` [CBK264475] the “% of control remaining” value was 133.763%. In the case of `Cc1nc(CNC(=O)c2nn(-c3cccc(C(C)C)c3)cc2O)no1` [CBK305269], the “% of control remaining” value is reported as 105.365%. `CCCC(=O)N1CCN(Cc2ccc3c(c2)OCO3)CC1` [CBK074367] was tested, and the “% of control remaining” value was 116.723%. `CCN(CCc1nc2cc(OC)ccc2[nH]1)C(=O)c1ccc(=O)n(C)c1` [CBK307312] was tested, and the “% of control remaining” value was 153.575%. For `CCCC(=O)c1ccc2c(c1)CC(N(CCC)CCC)C2` (centres unmarked) [CBK023971C], the “% of control remaining” value was 144.867%. `COc1ccc(C(=O)/C=C/c2cccs2)c(OC(=O)c2ccc([N+](=O)[O-])cc2)c1` [CBK264926] was tested, and the “% of control remaining” value was 95.2237%. For `CC[C@H]1CN(C(=O)c2ccnc(Cl)c2)CC[C@H]1CC(=O)NCc1ccc2c(c1)OCO2` [CBK289137], the “% of control remaining” value was 108.995%. With `CC(=O)NCCSc1cc(C(F)(F)F)ccn1` [CBK105297] the “% of control remaining” value was 99.8198%. With `COc1cccc(CN(C)CCN(C)C)c1O` [CBK261905] the “% of control remaining” value was 111.877%. In the case of `Cc1ccc(-c2cc(C(=O)Nc3ccc(S(=O)(=O)Nc4nccs4)cc3)c3ccccc3n2)c(C)c1` [CBK262638], the “% of control remaining” value is reported as 89.6193%. For `Cc1nonc1NC(=O)CSc1nc2cc(Cl)ccc2[nH]1` [CBK270095], the “% of control remaining” value was 131.286%. In the case of `COCCN(C(=O)c1ccc2ccccc2c1)C1CCS(=O)(=O)C1` (centres unmarked) [CBK305758], the “% of control remaining” value is reported as 121.488%. `CCOc1ccccc1NC(=O)Nc1ncccc1C` [CBK267140] was tested, and the “% of control remaining” value was 170.758%. In the case of `c1coc(CNc2c(-c3ccco3)nc3cnccn23)c1` [CBK283496], the “% of control remaining” value is reported as 105.566%. For `Cc1ccccc1/N=C1/NC(=O)/C(=C/c2ccc([N+](=O)[O-])o2)S1` [CBK094584], the “% of control remaining” value was 116.096%. With `O=C(O)c1ccc(-n2nnnc2SCc2ccc(F)cc2)cc1` [CBK287229] the “% of control remaining” value was 130.374%. `CCc1c(C(=O)Nc2ccc(C(F)(F)F)cc2)cnc2ncnn12` [CBK291244] was tested, and the “% of control remaining” value was 159.333%. In the case of `CN(C)CC(C)(C)CNC(=O)c1cnc2cc(Cl)ccc2c1O` [CBK107357], the “% of control remaining” value is reported as 162.77%. `CCn1ncc(CN[C@@H]2CCC(=O)N[C@H]2c2cc(F)cc(F)c2)c1C` [CBK282914] was tested, and the “% of control remaining” value was 110.889%. With `CCOC(=O)c1c(NC(=O)CCN2C(=O)c3cccc4cccc(c34)C2=O)sc2c1CCC2` [CBK262982] the “% of control remaining” value was 98.0302%. `O=C(NCc1ccc(OC2CCNCC2)cc1)c1ccccn1` [CBK036361T] was tested, and the “% of control remaining” value was 121.237%. `CSc1ncc(CNCc2ccc3c(c2)OCO3)c(N)n1` [CBK074563] was tested, and the “% of control remaining” value was 97.4218%. With `CC(=O)CCc1cc(CCC(N)=O)on1` [CBK023350] the “% of control remaining” value was 143.225%. For `CCCn1c(-c2ccccc2OC(F)(F)F)n[nH]c1=O` [CBK074238], the “% of control remaining” value was 118.678%. `NC(=O)CCNC(=O)C1(c2ccccc2)CCCC1` [CBK160929] was tested, and the “% of control remaining” value was 134.777%. In the case of `CC(C)c1ccc(/C=C2\CCCc3c2nc2ccccc2c3C(=O)O)cc1` [CBK299777], the “% of control remaining” value is reported as 168.899%. For `CCOC(=O)C1CSCCN1C(=O)c1ccc(-c2cnco2)cc1` (centres unmarked) [CBK304208], the “% of control remaining” value was 59.0804%. `O=C1CC2(CCCC2)C(=O)N1CCNc1nccc(C(F)(F)F)n1` [CBK028777] was tested, and the “% of control remaining” value was 124.158%. With `CCc1cc(CNC(=O)C(c2ccc(F)cc2)N(C)C)on1` (centres unmarked) [CBK281648] the “% of control remaining” value was 144.136%. `CCCOc1ccc(C(=O)NCc2ccccn2)cc1` [CBK269789] was tested, and the “% of control remaining” value was 160.963%. In the case of `O=C1NCC2(C/C=C/CCOc3ccccc31)CCNCC2` [CBK292178], the “% of control remaining” value is reported as 101.383%. With `O=C(CCn1c(=O)oc2ccccc21)Nc1ccncc1` [CBK287466] the “% of control remaining” value was 148.01%. In the case of `O=C(NCc1nnc(-c2cccs2)o1)c1cccc2ccccc12` [CBK284636], the “% of control remaining” value is reported as 136.97%. For `Clc1ccc(C2(N3CCC(N4CCOCC4)CC3)CC2)cc1` [CBK282722], the “% of control remaining” value was 138.145%. With `Nc1nnnn1CC(=O)N/N=C/c1cc2c(cc1[N+](=O)[O-])OCO2` [CBK262187] the “% of control remaining” value was 106.419%. For `O=C1N=C(NCc2ccccc2F)OC12CCN(Cc1ccccc1)CC2` [CBK115688], the “% of control remaining” value was 110.907%. For `CCCCCn1c(=O)c(Cc2ccccc2)c(O)c2ccccc21` [CBK291233], the “% of control remaining” value was 132.381%. For `COc1cccc(CCN2C(=O)CC3(C2=O)C(=O)N(C)c2ccc(OC)cc23)c1` (centres unmarked) [CBK075191], the “% of control remaining” value was 105.033%. With `CC(=O)N1CCC(NC(=O)c2cccc(C(N)=O)c2)CC1` [CBK297747] the “% of control remaining” value was 107.922%. For `C=C(C)Cn1c(Cc2ccccc2)nnc1SC(C)C` [CBK200083], the “% of control remaining” value was 98.0167%. With `O=C(c1c(-c2ccccc2)nnc2ccccc12)N1CCN(CCO)CC1` [CBK066882] the “% of control remaining” value was 128.027%. In the case of `CN1CCC(N2CCN(C(=O)NC3CCc4ccccc43)CC2)CC1` (centres unmarked) [CBK156110], the “% of control remaining” value is reported as 141.842%. In the case of `c1nc(NCCCN2CCOCC2)c2c3c(sc2n1)CCCCC3` [CBK268236], the “% of control remaining” value is reported as 151.454%. For `O=C(N[C@H]1CCN(Cc2ccccc2)C1)c1cnc(-c2ccccc2)c(-c2ccncc2)c1` [CBK036639], the “% of control remaining” value was 178.883%. For `COc1ccc(-c2noc(CN(C(=O)Cc3ccc(C)cc3)C(C)C)n2)cc1` [CBK269774], the “% of control remaining” value was 99.3137%. With `O=C(OCCN1CCOCC1)N1CCN(c2ccccc2)CC1` [CBK200242] the “% of control remaining” value was 124.985%. With `CCn1c(C)nc2cc(NC(=O)c3c4c(nn3C)CCCC4)ccc21` [CBK281831] the “% of control remaining” value was 123.964%. In the case of `CCOc1ccc(/C=C2/NC(=O)NC2=O)cc1Br` [CBK098031], the “% of control remaining” value is reported as 156.029%. With `CCCCOc1ccc(OC(=O)COCCOCCN2C(=O)c3ccccc3C2=O)cc1` [CBK155584] the “% of control remaining” value was 111.182%. In the case of `Cc1nc2ccc(C(=O)NCCCN3CC(C)CC(C)C3)cc2[nH]1` (centres unmarked) [CBK283298], the “% of control remaining” value is reported as 107.102%. `c1ccc2[nH]c(CN3CCC[C@@H]3CN3CCCC3)nc2c1` [CBK149102] was tested, and the “% of control remaining” value was 119.224%. For `Cc1cc(NC(=O)C(C)N2CCN(S(=O)(=O)c3ccc(C4CCCCC4)cc3)CC2)on1` (centres unmarked) [CBK295639], the “% of control remaining” value was 80.8085%. With `CCN1CCN(C(=O)CN(C)S(=O)(=O)c2ccc(OC)c(Cl)c2)CC1` [CBK268091] the “% of control remaining” value was 124.521%. In the case of `O=C(O)CCCCCN1C(=O)/C(=C/c2ccc(O)cc2)SC1=S` [CBK262835], the “% of control remaining” value is reported as 100%. For `Cc1cc2c(o1)c1cnn(CC(=O)N(C)C)c(=O)c1n2C(C)C` [CBK284233], the “% of control remaining” value was 144.728%. With `COc1ccc(Cn2nc(N)c3ccccc32)cc1` [CBK093530] the “% of control remaining” value was 106.738%. In the case of `CC(C(=O)NCCc1cn(C)c2ccc(Cl)cc12)N1CCOCC1` (centres unmarked) [CBK282263], the “% of control remaining” value is reported as 149.148%. With `COc1ccc(OC)c(-n2nnnc2SCC2CCCN(C)C2)c1` (centres unmarked) [CBK305386] the “% of control remaining” value was 115.421%. In the case of `c1coc(CNc2c(-c3cccs3)nc3cnccn23)c1` [CBK283540], the “% of control remaining” value is reported as 125.888%. `O=C(O)c1cccc(S(=O)(=O)Nc2nc3ccc(Cl)cc3s2)c1` [CBK299793] was tested, and the “% of control remaining” value was 124.778%. For `Cc1ccc(SCC(=O)Nc2ccc(O)cc2C(=O)O)cc1` [CBK131703], the “% of control remaining” value was 92.5967%. `COc1ccc(Nc2nnc(-c3ccc(C(=O)NCCO)cc3)c3ccccc23)cc1` [CBK263735] was tested, and the “% of control remaining” value was 127.083%. For `CC(C)NC(=O)C1CC2CCC1(C)C[C@]21NC(=O)c2ccccc2N1` (some centres unmarked) [CBK284444], the “% of control remaining” value was 143.607%. With `CCn1c(SCC(=O)N/N=C/C(C)=C/c2ccccc2)nc2ccccc21` [CBK263178] the “% of control remaining” value was 79.6848%. `O=C(Nc1ccccc1C(F)(F)F)N(Cc1ccccc1C(F)(F)F)CC1CCNCC1` [CBK049744] was tested, and the “% of control remaining” value was 80.706%.
